Reference: US20210324080A1
No constants are given. Whether binding was seen depends on the method and setting. Some binding calls cover weakened binding; strength is not graded here.

By UniProt entry, the sequences of proteins in these tests, tags left out. Residues count along the entry.
UniProt P16410, residues 36-161: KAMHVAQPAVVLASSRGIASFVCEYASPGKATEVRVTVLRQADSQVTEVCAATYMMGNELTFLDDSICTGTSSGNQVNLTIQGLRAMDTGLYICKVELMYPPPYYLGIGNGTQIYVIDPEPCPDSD

How the values were obtained:
[1] = biological target: CTLA-4-hFc (immunogen A; hFc-labeled CTLA-4 extracellular domain protein) (human) (UniProt P16410); assay: competition ELISA: CTLA-4-hFc coated, antibody titrated, blocked ligand biotin-labeled B7.1-hFc, HRP-avidin, A450, inhibition (%)
[2] = biological target: CTLA-4-hFc (immunogen A; hFc-labeled CTLA-4 extracellular domain protein) (human) (UniProt P16410); assay: competition ELISA: CTLA-4-hFc coated, antibody titrated, blocked ligand biotin-labeled B7.2-hFc, HRP-avidin, A450, inhibition (%)
[3] = biological target: CTLA-4-hFc (immunogen A; hFc-labeled CTLA-4 extracellular domain protein) (human) (UniProt P16410); assay: receptor-ligand blocking assay: CTLA-4 protein, antibody titrated, blocked ligand B7.1, inhibition (%)

| Binder | binding [1] | binding [2] | binding [3] |
| --- | --- | --- | --- |
| 31C12F3 (chimeric antibody purified from hybridoma supernatant) (antibody, V domains shown) VH: QVQLVESGGGVVQPGRSLILSCAASGFTFSSYGMHWVRQAPGKGLEWVAVVWYDGSNKYYADSVKGRFTISRDNSKNTLYLQMSSLRAEDTAVYYCARGGIVVPGLFEYWGQGSLVTVSS VL: DIQMTQSPSSLSASVGDRVAITCRTSQSISNLLNWYQQKPGKAPELLIYAPSSFQSGVPSRFRGSGSGTDFTLTISSLQPEDFATYYCQQSYSTPFTFGPGTKVDIK | binds | binds |  |
| 92C8B6 (chimeric antibody purified from hybridoma supernatant) (antibody, V domains shown) VH: QVQLVESGGGVVQPGRSLRLSCAASGFTFSNFGMHWVRQAPGKGLEWVAVIWYDGSNKYYADSVKGRFTISRDNSKNTLFLQMNGLRAEDTAVYYCAKGGILMAGTLDYWGQGTLVTVSS VL: DIQMTQSPSSLSASVGDRVTITCRASQSVSTYLNWYQQKPGKAPKLLIYAASSFQSGVPSRFSGSGSGTDFTLTISSLQPEDFATYFCQQSYSTPFTFGPGTKVDIK | binds | binds |  |
| 97A8D1 (chimeric antibody purified from hybridoma supernatant) (antibody, V domains shown) VH: QVQLVESGGGVVQPGRSLRLSCVASGFTFNNYGMNWVRQAPGKGLEWVAVIWYGGRNKFYADSVKGRFTISRDNSKNTLYLEMNSLRAEDTAVYYCARADWGGWFDPWGQGTLVTVSS VL: EIVLTQSPGTLSLSPGERATLSCRASQSVSSTYLAWYQQKPGQAPRLLIHGAFSRATGIPDRFSGSGSGPDFTLTISRLEPEDFAVYYCQQYGTSPFTFGPGTKVDIK | binds | binds |  |
| 31C12F3 fully human CTLA-4 antibody (human IgG1, kappa) (antibody, V domains shown) VH: QVQLVESGGGVVQPGRSLILSCAASGFTFSSYGMHWVRQAPGKGLEWVAVVWYDGSNKYYADSVKGRFTISRDNSKNTLYLQMSSLRAEDTAVYYCARGGIVVPGLFEYWGQGSLVTVSS VL: DIQMTQSPSSLSASVGDRVAITCRTSQSISNLLNWYQQKPGKAPELLIYAPSSFQSGVPSRFRGSGSGTDFTLTISSLQPEDFATYYCQQSYSTPFTFGPGTKVDIK |  |  | binds |
| 92C8B6 fully human CTLA-4 antibody (human IgG1, kappa) (antibody, V domains shown) VH: QVQLVESGGGVVQPGRSLRLSCAASGFTFSNFGMHWVRQAPGKGLEWVAVIWYDGSNKYYADSVKGRFTISRDNSKNTLFLQMNGLRAEDTAVYYCAKGGILMAGTLDYWGQGTLVTVSS VL: DIQMTQSPSSLSASVGDRVTITCRASQSVSTYLNWYQQKPGKAPKLLIYAASSFQSGVPSRFSGSGSGTDFTLTISSLQPEDFATYFCQQSYSTPFTFGPGTKVDIK |  |  | binds |
| 97A8D1 fully human CTLA-4 antibody (human IgG1, kappa) (antibody, V domains shown) VH: QVQLVESGGGVVQPGRSLRLSCVASGFTFNNYGMNWVRQAPGKGLEWVAVIWYGGRNKFYADSVKGRFTISRDNSKNTLYLEMNSLRAEDTAVYYCARADWGGWFDPWGQGTLVTVSS VL: EIVLTQSPGTLSLSPGERATLSCRASQSVSSTYLAWYQQKPGQAPRLLIHGAFSRATGIPDRFSGSGSGPDFTLTISRLEPEDFAVYYCQQYGTSPFTFGPGTKVDIK |  |  | binds |
